Measurements: PMC5421814, “A Sequence in the loop domain of hepatitis C virus E2 protein identified in silico as crucial for the selective binding to human CD81” (PLoS ONE, 2017)
Results are given in words; binding and its absence hold for the method and conditions named. Some entries that bind do so weakly or less than the wild type.

T1: rat CD81 on PC-12 cells (rat (endogenous in PC-12)) (UniProt Q62745)
T1 sequence: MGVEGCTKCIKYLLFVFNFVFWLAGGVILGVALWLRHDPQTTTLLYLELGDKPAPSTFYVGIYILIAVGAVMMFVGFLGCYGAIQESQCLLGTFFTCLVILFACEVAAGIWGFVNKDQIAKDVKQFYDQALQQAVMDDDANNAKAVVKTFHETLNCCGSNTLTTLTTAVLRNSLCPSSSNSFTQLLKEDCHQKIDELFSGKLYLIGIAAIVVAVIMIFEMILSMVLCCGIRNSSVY

T2: human CD81 on Huh-7 cells (human (endogenous in Huh-7)) (UniProt P60033)
T2 sequence: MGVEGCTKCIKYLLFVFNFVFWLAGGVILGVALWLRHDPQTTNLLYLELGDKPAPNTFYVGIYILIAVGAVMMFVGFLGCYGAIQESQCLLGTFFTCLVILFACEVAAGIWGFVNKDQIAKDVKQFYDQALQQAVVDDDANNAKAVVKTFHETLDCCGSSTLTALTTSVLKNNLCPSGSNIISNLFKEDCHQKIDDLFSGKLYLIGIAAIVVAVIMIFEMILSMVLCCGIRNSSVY


How the values were obtained:
[1] = target: T1, rat CD81 on PC-12 cells (rat (endogenous in PC-12)); experiment: flow cytometry on cells; Huh-7 or PC-12 cells (1 x 10^6 cells/mL) in PBS with 5% BSA, treated with 2, 5, 10, 20, 30 and 40 μM fluorescent peptide for 30 min in the dark, washed twice; only the binder purified
[2] = target: T2, human CD81 on Huh-7 cells (human (endogenous in Huh-7)); experiment: as above
[3] = target: T2, human CD81 on Huh-7 cells (human (endogenous in Huh-7)); experiment: flow cytometry on cells; competition: Huh-7 cells pretreated with nonfluorescent peptide (10, 20, 40 μM) in PBS with 5% BSA for 30 min, then FITC-labelled anti-human-CD81 monoclonal antibodies for 30 min; only the binder purified

Binder	binding [1]	binding [2]	binding [3]
RSGAPTYSWGANDTDVF (labelled with the fluorescent dye 5-carboxyfluorescein (position not given)) [fluorescent p_E2-site2]	no binding (tested: 40 μM)	binds	–
INSTALNCNESLNTGWLAGLFYQ (labelled with the fluorescent dye 5-carboxyfluorescein (position not given)) [fluorescent p_E2-site1]	no binding (tested: 40 μM)	binds	–
RSGAPTYSWGANDTDVF (hepatitis C virus envelope glycoprotein E2, residues 521-537 of the polyprotein; also called E2-site2 peptide; E2-s2; source: synthetic peptide, bought: GeneMark (GMbiolab Co., Ltd., Taiwan)) [p_E2-site2]	–	–	binds
INSTALNCNESLNTGWLAGLFYQ (hepatitis C virus envelope glycoprotein E2, residues 422-444 of the polyprotein; also called E2-site1 peptide; E2-s1; source: synthetic peptide, bought: GeneMark (GMbiolab Co., Ltd., Taiwan)) [p_E2-site1]	–	–	binds
